Primary screen of a compound library

The chains behind the UniProt entries cited, without tags or fusion partners.
UniProt I6X8D2, whole entry: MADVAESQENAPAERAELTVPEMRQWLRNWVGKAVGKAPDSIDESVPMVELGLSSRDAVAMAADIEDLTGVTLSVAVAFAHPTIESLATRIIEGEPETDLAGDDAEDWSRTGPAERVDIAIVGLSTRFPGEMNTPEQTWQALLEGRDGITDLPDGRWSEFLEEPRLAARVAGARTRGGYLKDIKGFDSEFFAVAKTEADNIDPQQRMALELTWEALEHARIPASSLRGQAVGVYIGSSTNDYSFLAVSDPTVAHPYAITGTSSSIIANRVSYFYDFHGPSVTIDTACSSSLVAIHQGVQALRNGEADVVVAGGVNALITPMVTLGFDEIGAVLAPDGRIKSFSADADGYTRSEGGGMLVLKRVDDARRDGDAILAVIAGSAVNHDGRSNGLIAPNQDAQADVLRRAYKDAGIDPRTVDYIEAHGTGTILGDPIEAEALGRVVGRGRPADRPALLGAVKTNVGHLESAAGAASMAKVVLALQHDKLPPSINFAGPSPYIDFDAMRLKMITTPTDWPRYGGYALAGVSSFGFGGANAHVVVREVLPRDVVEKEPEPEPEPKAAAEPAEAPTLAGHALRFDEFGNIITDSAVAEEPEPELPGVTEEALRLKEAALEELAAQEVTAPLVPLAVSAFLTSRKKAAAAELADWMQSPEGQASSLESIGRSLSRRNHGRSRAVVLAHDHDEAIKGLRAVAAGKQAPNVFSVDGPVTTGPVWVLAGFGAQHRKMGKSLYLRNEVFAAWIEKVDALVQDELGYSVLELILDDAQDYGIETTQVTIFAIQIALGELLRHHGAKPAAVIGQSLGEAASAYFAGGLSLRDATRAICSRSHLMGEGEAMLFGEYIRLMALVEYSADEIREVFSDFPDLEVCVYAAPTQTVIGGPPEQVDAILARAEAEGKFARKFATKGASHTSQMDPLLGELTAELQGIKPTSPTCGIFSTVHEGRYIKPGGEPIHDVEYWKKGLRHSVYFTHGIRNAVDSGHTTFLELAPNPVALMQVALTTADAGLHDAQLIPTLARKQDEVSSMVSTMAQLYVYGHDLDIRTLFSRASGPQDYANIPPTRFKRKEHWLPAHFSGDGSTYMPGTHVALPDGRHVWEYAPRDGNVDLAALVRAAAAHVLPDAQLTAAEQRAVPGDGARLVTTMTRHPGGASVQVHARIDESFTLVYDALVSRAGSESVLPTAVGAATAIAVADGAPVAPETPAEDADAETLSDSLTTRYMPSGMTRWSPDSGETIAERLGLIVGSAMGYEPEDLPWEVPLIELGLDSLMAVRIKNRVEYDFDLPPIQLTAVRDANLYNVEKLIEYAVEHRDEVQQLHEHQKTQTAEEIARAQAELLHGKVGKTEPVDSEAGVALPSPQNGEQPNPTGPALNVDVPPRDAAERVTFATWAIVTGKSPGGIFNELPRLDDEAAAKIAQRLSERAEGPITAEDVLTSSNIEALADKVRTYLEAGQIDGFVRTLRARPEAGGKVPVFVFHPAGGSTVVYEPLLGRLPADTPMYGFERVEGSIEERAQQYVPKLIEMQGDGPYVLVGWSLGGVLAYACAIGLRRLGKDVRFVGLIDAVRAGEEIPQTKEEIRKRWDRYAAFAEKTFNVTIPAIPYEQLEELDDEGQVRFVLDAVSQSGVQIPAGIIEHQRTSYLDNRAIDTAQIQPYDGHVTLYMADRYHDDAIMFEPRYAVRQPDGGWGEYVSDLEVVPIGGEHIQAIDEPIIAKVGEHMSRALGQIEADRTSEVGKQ

Data taken from ChEMBL document CHEMBL3988442, “University of Dundee, Small-Polar-MMV Screening Library” (2021).

Values are the deposited “Percent Effect”, in %. How 0% and 100% were set is not recorded. Most values in the screen are low, and negative values occur. Compounds were drawn at random from those tested, without regard to their results.

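Enzyme assay of the thioesterase domain of polyketide synthase 13; the read-out is not stated. Target: Polyketide synthase Pks13, Mycobacterium tuberculosis (UniProt I6X8D2). Concentration: 30 µM. The record gives no direction; the compounds picked for IC50 retests had high values, so higher reads as stronger inhibition. Size under these conditions: about 67,000 compounds, about 300 of them at 50% or above in at least one test.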

| compound | percent effect |
|---|---|
| `CCN(CC1CCOC1)C(=O)c1cnc2onc(C)c2c1` (centres undefined) | -15.54 |
| `CCCOc1cc(CNC(=O)Nc2ccccn2)ccn1` | -17.88 |
| `Cc1cc(CCC(N)=O)cc(C2CCCN2Cc2ccnn2C)n1` (centres undefined) | 4.821 |
| `O=C(NCc1ccnc(O)c1)NCC1CCCC1` | -4.617 |
| `c1ccc(Oc2cccc(OC34CCCN(CC3)C4)c2)cc1` (centres undefined) | -9.589 |
| `c1cc(CN2CCC(n3cc(CN4CCCC4)nn3)CC2)cs1` | -4.763 |
| `Cn1cc(N2C(=O)CC[C@@H]3[C@H]2CCN3Cc2cccc(C#N)c2)cn1` | -11.35 |
| `Cc1nc2c(c(NCc3ccccc3)n1)CCN(C(=O)C1CCC1)CC2` | -25.77 |
| `c1csc(N2CCN(c3nccn4cnnc34)CC2)n1` | -32.6 |
| `Cc1cccnc1CNCC1(O)CCCN(Cc2ccc(F)cc2)C1=O` (centres undefined) | -43.66 |
| `CCOc1ccc(CN(CCOC)c2nc(C)nc3oc(C)nc23)cc1` | -2.281 |
| `CCC1c2ccsc2CCN1C(=O)NCc1cccnc1OC` (centres undefined) | -27.99 |
| `CS(=O)(=O)N1CCC(C(=O)NCCNc2ncccn2)CC1` | -12.5 |
| `O=c1[nH]c2ccccc2c(=O)n1Cc1nnnn1C1CC1` | -5.279 |
| `CCC(=O)N1CCN(c2ncnc3cc4c(cc23)OCCO4)CC1` | -7.725 |
| `Cc1cnn(C2(C(=O)O)CCN(c3ccncc3F)CC2)c1` | -14.29 |
| `O=C(NCC1CCCO1)c1nc2c(s1)CCCN2Cc1ccccc1` (centres undefined) | -31.22 |
| `CC(C)C(=O)NCc1cc(Br)ccc1F` | -7.203 |
| `Cn1ccc(CN2CCC(c3ccccc3)CC2)cc1=O` | -8.717 |
| `O=C(O)[C@@H]1CN(Cc2ccc(-c3cc[nH]n3)s2)C[C@H]1C1CC1` | -26.81 |
| `Cc1cc(C)nc(CCNC(=O)C(c2ccc(F)cc2)N(C)C)n1` (centres undefined) | 5.347 |
| `Cc1cc(N2CCC3(CCCN(CCO)C3=O)C2)nc2cc(Cl)ccc12` (centres undefined) | 0.5227 |
| `Cc1cc(F)ccc1S(=O)(=O)N(C)CC(N)=O` | -9.173 |
| `O=C(CN(Cc1cccs1)C1CCS(=O)(=O)C1)NCCc1cccs1` (centres undefined) | -10.91 |
| `Cc1cc(C)cc(CN2CCN(C(=O)CCc3n[nH]c(C)n3)CC2=O)c1` | 3.119 |
| `Cc1cc(NC(=O)N2CCN(c3cccs3)CC2)ccc1C(N)=O` | 26.51 |
| `O=C1CCCN1Cc1ncn2c1CN(Cc1cccs1)CCC2` | -7.192 |
| `CN(Cc1ccncc1)C(=O)c1ccc2c(c1O)OC(C)(C)C2` | -46.45 |
| `COc1ccc(CN(C)Cc2cccc(C#N)c2)c(OC)c1` | -23.92 |
| `O=C(NC1CCCc2nc(N3CCOCC3)ncc21)C1CCCCC1` (centres undefined) | -27.51 |
| `CC(C(=O)O)N1CC2(CCC1=O)CCN(CCc1ccccc1)CC2` (centres undefined) | -11.69 |
| `CCC(=O)N1CCN(C(=O)Nc2cccc(F)c2)[C@H]2CS(=O)(=O)C[C@H]21` | -4.725 |
| `Cn1cc(NC(=O)N2CCC(CN3CCCC3)CC2)ccc1=O` | 10.22 |
| `CCc1nc(N)nc(N2CCCC3(CCOCC3)C2)c1C` | -46.18 |
| `Cc1ccc(F)c(NC(=O)NCCCn2nc3ccccn3c2=O)c1` | -11.13 |
| `COc1cccc(-c2c[nH]c(C)n2)c1F` | 0.254 |
| `Cc1nc(CCC(N)=O)cc(C2CCNCC2)n1` | -14.42 |
| `Cc1ccc(NC(=O)NCC(c2cnn(C)c2)N(C)C)c(C)c1` (centres undefined) | 33.91 |
| `Cc1ccc(CCC(=O)N2CCOCC2)cc1Cl` | -21.8 |
| `CCCC(=O)N1CCCC(c2cc3cccnc3c(O)n2)C1` (centres undefined) | 9.062 |
| `Cc1cc(CN2CCN(C(=O)c3ccc(=O)n(C)c3)CC2)no1` | 1.876 |
| `CN1CCOC(CNC(=O)CCCOc2cccc(F)c2)C1` (centres undefined) | -17.99 |
| `O=C1CC(N(C(=O)CCc2c[nH]c3ccccc23)C2CC2)C(=O)N1` (centres undefined) | -1.3 |
| `CNc1cncc(C2CCN(C(=O)c3cnco3)CC2)n1` | 30.58 |
| `CC1(C)CC(=O)c2cnc3nc(N4CCCCC4)nc(O)c3c2C1` | -15.37 |
| `CCCNC(=O)NC(=O)CN1C=Nc2ccccc2S1(=O)=O` | -7.957 |
| `Cc1ccccc1CN1CCC(CNc2ncnc3c2CCNCC3)C1` (centres undefined) | -4.339 |
| `CCC(CC#N)n1ccc(C(F)(F)F)n1` (centres undefined) | 6.685 |
| `Cc1nc(-c2ccncc2)ncc1C(C)NC(=O)Cn1ccccc1=O` (centres undefined) | -19.34 |
| `Cc1ccccc1N1CCN(C(=O)c2cscn2)C(C)C1` (centres undefined) | 1.19 |
| `CNC(=O)C(C)(C)N1CCC[C@H]1C(=O)NCCN1CCCC1` | 23 |
| `COc1ccc(C)cc1NC(=O)CNc1ccn(CC(N)=O)n1` | 1.165 |
| `Cn1nccc1C(=O)N1CCOC(Cc2cccnc2)C1` (centres undefined) | -20.98 |
| `CC1(C(=O)N2CCOCC2)CN(Cc2cccnc2)CCO1` (centres undefined) | 42.7 |
| `CN(C)CCN1CC(C(=O)N2CCC(c3cccc(O)c3)CC2)CC1=O` (centres undefined) | -16.65 |
| `Cc1nc(Cn2c3c(ccc2=O)CC(NC(N)=O)CC3)cs1` (centres undefined) | -9.32 |
| `O=C(c1ccc(Cl)c(Cl)c1)N1CCCC(n2cncn2)C1` (centres undefined) | -9.037 |
| `Cc1nc(CN2CCN(C(=O)CCc3cccnc3)CC2)no1` | -18.94 |
| `Cc1cc2n(n1)CC(CNC1CCN(c3ccc(F)cc3)CC1)CN2` (centres undefined) | -25.75 |
| `COc1ccc(C2SCC(=O)Nc3ccsc32)cc1OC` (centres undefined) | -17.15 |
| `c1ccc2sc(N3CCCC(Cn4cncn4)C3)nc2c1` (centres undefined) | 0.7642 |
| `CC(C)(N)C(=O)N1CCCC1c1cncc(Oc2ccc(F)cc2)n1` (centres undefined) | -5.959 |
| `COc1ccc(N(C)C(=O)c2ccc(Cl)c(S(C)(=O)=O)c2)cn1` | -31.98 |
| `CC(c1cncs1)N(C)Cc1ccc(CCC(C)(C)O)cc1` (centres undefined) | -19.64 |

For reference, 6 entries once more:

compound	percent effect
CC1(C(=O)N2CCOCC2)CN(Cc2cccnc2)CCO1 (centres undefined)	42.7
COc1ccc(N(C)C(=O)c2ccc(Cl)c(S(C)(=O)=O)c2)cn1	-31.98
Cc1nc(-c2ccncc2)ncc1C(C)NC(=O)Cn1ccccc1=O (centres undefined)	-19.34
CC(C)(N)C(=O)N1CCCC1c1cncc(Oc2ccc(F)cc2)n1 (centres undefined)	-5.959
CCCNC(=O)NC(=O)CN1C=Nc2ccccc2S1(=O)=O	-7.957
Cc1nc(CN2CCN(C(=O)CCc3cccnc3)CC2)no1	-18.94